At least one structure is not confirmed: it was looked up by name or label, or the drawing left a doubt.
Target: human NAMPT (Homo sapiens (Human), UniProt P43490)
Assay: Human recombinant enzyme assay (NMN fluorescence biochemical assay)
Settings: concentration of compound that generates 40% higher activity over basal; 6 nM human NAMPT, 60 min
Procedure: Compounds described herein were assayed for their ability to stimulate the synthesis of nicotinamide mononucleotide (NMN) by the enzyme NAMPT. The human recombinant enzyme assay measures the activation of the enzyme activity by compounds using recombinant enzyme and substrates in a buffered cell-free system. The assay conditions closely mimic cellular environments. Dose responses were measured using an assay to detect the formation of nicotinamide mono-nucleotide. All experiments were performed in the 384-well format. Generally, 0.5 μL of DMSO containing varying concentrations of the test compound was mixed with 10 μL of the enzyme reagent solution. Enzyme reactions were initiated with the addition of 10 μL of a solution containing the substrates. The final assay conditions were as follows: 6 nM human NAMPT, 2.5 mM ATP, […] in 50 mM HEPES, pH 7.2, 1 mM DTT, 1 mM CHAPS 50 mM NaCl, 100 mM MgCl2. Following an incubation of 60 min at ambient temperature, 10 μL of 20% acetophenone in DMSO was added, followed by 10 μL of 2 M KOH and 40 μL of formic acid. The plates were read for fluorescence (Excitation/Emission=355 nm/460 nm) using an EnVision plate reader after 40 mins of incubation at ambient temperature. […]

Sequences of proteins named here, by UniProt entry; tags and fusion partners are left off. A change or cut given only in a name is not applied to a line headed by its entry.
UniProt P43490: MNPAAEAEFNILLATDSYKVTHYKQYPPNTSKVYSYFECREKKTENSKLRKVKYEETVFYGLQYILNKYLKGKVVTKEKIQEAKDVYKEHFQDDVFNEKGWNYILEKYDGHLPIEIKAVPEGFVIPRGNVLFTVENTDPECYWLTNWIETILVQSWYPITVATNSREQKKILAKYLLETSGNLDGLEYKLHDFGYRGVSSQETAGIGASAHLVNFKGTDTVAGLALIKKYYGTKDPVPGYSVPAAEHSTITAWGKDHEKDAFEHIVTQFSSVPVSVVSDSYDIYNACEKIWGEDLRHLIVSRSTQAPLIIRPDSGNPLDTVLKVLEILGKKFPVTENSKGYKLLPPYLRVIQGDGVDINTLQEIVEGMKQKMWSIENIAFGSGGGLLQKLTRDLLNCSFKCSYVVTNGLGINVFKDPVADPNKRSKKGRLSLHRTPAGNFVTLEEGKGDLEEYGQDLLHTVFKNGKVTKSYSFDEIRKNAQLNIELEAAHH

Cc1nc(C(=O)N2CCN(Cc3ccccc3)C(=O)C2)nc(NCCc2cn[nH]c2)c1C [Compound 45, 4-(4-((2-(1H-pyrazol-4-yl)ethyl)amino)-5,6-dimethylpyrimidine-2-carbonyl)-1-benzoylpiperazin-2-one]
AC1.4 Human: 0.277 µM

Cc1ccc([C@@H](C)NC(=O)c2nc(C)c(C)c(NCCc3cn[nH]c3)n2)o1 [Compound 101]
AC1.4 Human: 1.519 µM

From patent US20240067631A1, “PYRAZOLE DERIVATIVES USEFUL AS NAMPT MODULATORS” (Cytokinetics, Inc., priority 2020, published 2024)
